Assay results published in patent US5336483A (priority 1993, dated 1994).

Legend:
μ and κ2 receptor = assay: Displacement of [^3 H]CycloFOXY, μ and κ2 receptor binding, rat brain lysed-P2 membranes; conditions: [^3 H]CycloFOXY displacement
Low Affinity δ Receptors = assay: Displacement of [^3 H]DADLE, low affinity δ receptors, rat lysed-P2 membranes; format: binding
κ2 receptor = assay: Displacement of [^3 H]BRM (bremazocine), κ2 receptor binding, guinea pig brain membranes depleted of μ and δ sites; conditions: [^3 H]BRM displacement

SMILES | N (slope factor) (μ and κ2 receptor) | N (slope factor) (Low Affinity δ Receptors) | N (slope factor) (κ2 receptor)
Oc1ccc2c3c1O[C@H]1[C@H](Br)CC[C@@]4(O)[C@@H](C2)N(CC2CC2)CC[C@]314 [CycloBROXY, reference compound] | 1.04 ± 0.04 | 0.83 ± .02 | 0.55 ± .02
Oc1ccc2c3c1O[C@H]1[C@@H](I)CC[C@@]4(O)[C@@H](C2)N(CC2CC2)CC[C@]314 [EpilOXY, 6α-Iodo-3,14-Dihydroxy-17-Cyclopropylmethyl-4,5α-Epoxymorphinan] | 1.21 ± 0.06 | 0.94 ± .06 | 0.76 ± .03
Oc1ccc2c3c1O[C@H]1[C@H](I)CC[C@@]4(O)[C@@H](C2)N(CC2CC2)CC[C@]314 [IOXY, 6β-Iodo-3,14-Dihydroxy-17-Cyclopropylmethyl-4,5α-Epoxymorphinan] | 0.99 ± 0.06 | 0.76 ± .05 | 0.74 ± .02
O=C1CC[C@@]2(O)[C@H]3Cc4ccc(O)c5c4[C@@]2(CCN3CC2CC2)[C@H]1O5 [Naltrexone, reference compound] | – | – | 0.74 ± .02
